Measured values published in patent US20030180744A1.
No constants are given. Whether binding was seen depends on the method and setting. Some entries that bind do so weakly or less than the wild type.

The chains behind the UniProt entries cited, without tags or fusion partners. Where a name states a change or a piece, a line headed by the entry shows the natural chain unless it says otherwise. A line that says so, or that is headed by a name, gives the form on record, which may keep a tag or linker.
hKGF receptor present in the PC-3 plasma membrane extracts (P21802, form named): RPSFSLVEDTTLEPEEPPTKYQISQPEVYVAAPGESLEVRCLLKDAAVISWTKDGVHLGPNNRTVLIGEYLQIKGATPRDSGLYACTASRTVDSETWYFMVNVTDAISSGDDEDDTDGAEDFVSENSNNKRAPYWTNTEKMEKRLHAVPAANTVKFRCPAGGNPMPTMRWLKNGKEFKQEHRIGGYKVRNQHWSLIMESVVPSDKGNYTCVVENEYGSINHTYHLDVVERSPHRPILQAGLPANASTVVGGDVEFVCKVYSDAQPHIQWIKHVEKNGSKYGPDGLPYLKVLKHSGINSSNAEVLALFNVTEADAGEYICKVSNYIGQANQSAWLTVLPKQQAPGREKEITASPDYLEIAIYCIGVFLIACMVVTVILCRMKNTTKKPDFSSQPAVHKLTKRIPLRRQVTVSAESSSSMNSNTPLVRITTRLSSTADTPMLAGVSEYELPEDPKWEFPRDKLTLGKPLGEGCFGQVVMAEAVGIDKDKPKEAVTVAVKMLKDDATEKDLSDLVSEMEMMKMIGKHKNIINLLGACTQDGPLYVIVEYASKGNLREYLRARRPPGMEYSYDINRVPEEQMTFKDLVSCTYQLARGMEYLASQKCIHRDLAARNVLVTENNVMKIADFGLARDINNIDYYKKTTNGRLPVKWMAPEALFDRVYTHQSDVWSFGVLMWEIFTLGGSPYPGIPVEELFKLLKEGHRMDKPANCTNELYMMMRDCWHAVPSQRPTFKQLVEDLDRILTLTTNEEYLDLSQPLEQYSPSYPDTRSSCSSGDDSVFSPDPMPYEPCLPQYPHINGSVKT

Legend:
[1] = target: hKGF receptor present in the PC-3 plasma membrane extracts (UniProt P21802); experiment: native gel electrophoretic mobility shift; the shift is lost with 100 fold excess of unlabeled hKGF
[2] = target: hKGF receptor present in the PC-3 plasma membrane extracts (UniProt P21802); experiment: native gel electrophoretic mobility shift (FIG. 11 legend)

binding [1]: binds
binding [2]: binds
B1: Recombinant human Keratinocyte Growth Factor (hKGF) (ligand, UniProt P21781 32-194, looked up)
chain: CNDMTPEQMATNVNCSSPERHTRSYDYMEGGDIRVRRLFCRTQWYLRIDKRGKVKGTQEMKNNYNIMEIRTVAVGIVAIKGVESEFYLAMNKEGKLYAKKECNEDCNFKELILENHYNTYASAKWTHNGGEMFVALNQKGIPVRGKKTKKEQKTAHFLPMAIT
